Measured values as given in patent publication US10640547B2, “Immunotherapy against melanoma and other cancers” (IMMATICS BIOTECHNOLOGIES GMBH, priority 2016, dated 2020).

System: HLA molecules of melanoma, other tumor and normal tissue samples
Experiment: Identification and relative quantitation of tumor associated peptides presented on the cell surface (HLA immunoprecipitation, label-free LC-MS)
Design: species or system human; key to Peptide Presentation (presentation score): very highly over-presented on tumors compared to a panel of normal tissues (+++); highly over-presented on tumors compared to a panel of normal tissues (++); over-presented on tumors compared to a panel of normal tissues (+)
Details: for Peptide Presentation (presentation score): over-presentation on tumors compared to a panel of normal tissues; for relevant organs/diseases (additional tumor types on which the peptide was found) / Additional Entities (additional tumor types on which the peptide was found): over-presented on more than 5% of the measured tumor samples, or presented on more than 5% with ratio of geometric means tumor vs normal tissues larger than 3

187 (SLPRPTPQA; listed as Homo sapiens) [compound 187]
Peptide Presentation (presentation score): + | relevant organs/diseases (additional tumor types on which the peptide was found): RCC

188 (VVVDPIQSV; listed as Homo sapiens) [compound 188]
Peptide Presentation (presentation score): +++

189 (KALQFLEEV; listed as Homo sapiens) [compound 189]
Peptide Presentation (presentation score): +++ | Additional Entities (additional tumor types on which the peptide was found): HCC | relevant organs/diseases (additional tumor types on which the peptide was found): GC, CRC, BRCA, Uterine Cancer

190 (RLVSLITLL; listed as Homo sapiens) [compound 190]
Peptide Presentation (presentation score): +++ | relevant organs/diseases (additional tumor types on which the peptide was found): CLL

191 (YLDKMNNNI; listed as Homo sapiens) [compound 191]
Peptide Presentation (presentation score): +++ | relevant organs/diseases (additional tumor types on which the peptide was found): NSCLC, RCC, Brain Cancer, PC, NHL, AML, BRCA, Esophageal Cancer, Urinary bladder cancer, Uterine Cancer, Gallbladder Cancer, Bile Duct Cancer

192 (KLFTQIFGV; listed as Homo sapiens) [compound 192]
Peptide Presentation (presentation score): +++ | Additional Entities (additional tumor types on which the peptide was found): SCLC | relevant organs/diseases (additional tumor types on which the peptide was found): HCC

193 (ALDEPTTNL; listed as Homo sapiens) [compound 193]
Peptide Presentation (presentation score): ++ | Additional Entities (additional tumor types on which the peptide was found): CRC, CLL, NHL | relevant organs/diseases (additional tumor types on which the peptide was found): AML, Urinary bladder cancer, Gallbladder Cancer, Bile Duct Cancer

194 (TLDDIMAAV; listed as Homo sapiens) [compound 194]
Peptide Presentation (presentation score): ++ | relevant organs/diseases (additional tumor types on which the peptide was found): NSCLC, SCLC, RCC, Brain Cancer, CRC, CLL, NHL, AML, BRCA, Urinary bladder cancer, Uterine Cancer, Gallbladder Cancer, Bile Duct Cancer

195 (IAAGIFNDL; listed as Homo sapiens) [compound 195]
Peptide Presentation (presentation score): +++ | Additional Entities (additional tumor types on which the peptide was found): Gallbladder Cancer, Bile Duct Cancer | relevant organs/diseases (additional tumor types on which the peptide was found): CLL, AML

196 (ALEPIDITV; listed as Homo sapiens) [compound 196]
Peptide Presentation (presentation score): +++ | relevant organs/diseases (additional tumor types on which the peptide was found): BRCA

197 (ALDSGFNSV; listed as Homo sapiens) [compound 197]
Peptide Presentation (presentation score): + | relevant organs/diseases (additional tumor types on which the peptide was found): CLL, NHL, Uterine Cancer

198 (EVVDKINQV; listed as Homo sapiens) [compound 198]
Peptide Presentation (presentation score): +++ | relevant organs/diseases (additional tumor types on which the peptide was found): RCC

199 (AIHTAILTL; listed as Homo sapiens) [compound 199]
relevant organs/diseases (additional tumor types on which the peptide was found): CRC, BRCA

200 (LLEEINHFL; listed as Homo sapiens) [compound 200]
Peptide Presentation (presentation score): +++

201 (SLIDRTIKM; listed as Homo sapiens) [compound 201]
Peptide Presentation (presentation score): +++

202 (RVAFKINSV; listed as Homo sapiens) [compound 202]
Peptide Presentation (presentation score): +++

203 (FLNEDISKL; listed as Homo sapiens) [compound 203]
Peptide Presentation (presentation score): +++ | Additional Entities (additional tumor types on which the peptide was found): HCC | relevant organs/diseases (additional tumor types on which the peptide was found): RCC

204 (RMDEEFTKI; listed as Homo sapiens) [compound 204]
Peptide Presentation (presentation score): +++ | Additional Entities (additional tumor types on which the peptide was found): AML

205 (SLKSKVLSV; listed as Homo sapiens) [compound 205]
Peptide Presentation (presentation score): +++ | Additional Entities (additional tumor types on which the peptide was found): HCC

206 (LLYEDIPDKV; listed as Homo sapiens) [compound 206]
Peptide Presentation (presentation score): + | Additional Entities (additional tumor types on which the peptide was found): RCC, HCC, HNSCC | relevant organs/diseases (additional tumor types on which the peptide was found): CLL, NHL, Esophageal Cancer, OC, Urinary bladder cancer

207 (VQIGDIVTV; listed as Homo sapiens) [compound 207]
Peptide Presentation (presentation score): + | Additional Entities (additional tumor types on which the peptide was found): HNSCC | relevant organs/diseases (additional tumor types on which the peptide was found): GC, AML, BRCA

208 (YSDDIPHAL; listed as Homo sapiens) [compound 208]
Peptide Presentation (presentation score): ++ | Additional Entities (additional tumor types on which the peptide was found): Gallbladder Cancer, Bile Duct Cancer | relevant organs/diseases (additional tumor types on which the peptide was found): AML

209 (SILDGLIHL; listed as Homo sapiens) [compound 209]
Peptide Presentation (presentation score): ++ | relevant organs/diseases (additional tumor types on which the peptide was found): CLL, NHL, AML

210 (LLPELRDWGV; listed as Homo sapiens) [compound 210]
Additional Entities (additional tumor types on which the peptide was found): HCC, CLL | relevant organs/diseases (additional tumor types on which the peptide was found): NHL

211 (FLPFLTTEV; listed as Homo sapiens) [compound 211]
Peptide Presentation (presentation score): + | Additional Entities (additional tumor types on which the peptide was found): SCLC, HNSCC | relevant organs/diseases (additional tumor types on which the peptide was found): HCC, CLL, NHL, AML, OC, Uterine Cancer

212 (LLKDSIVQL; listed as Homo sapiens) [compound 212]
Peptide Presentation (presentation score): + | Additional Entities (additional tumor types on which the peptide was found): GC, HCC, AML, NHL | relevant organs/diseases (additional tumor types on which the peptide was found): RCC, CLL, Urinary bladder cancer

213 (LLDPTNVFI; listed as Homo sapiens) [compound 213]
Peptide Presentation (presentation score): + | Additional Entities (additional tumor types on which the peptide was found): GC, OC, Esophageal Cancer, HNSCC | relevant organs/diseases (additional tumor types on which the peptide was found): PrC, NHL, AML, Urinary bladder cancer

214 (VLMEMSYRL; listed as Homo sapiens) [compound 214]
Peptide Presentation (presentation score): + | Additional Entities (additional tumor types on which the peptide was found): NSCLC, HNSCC | relevant organs/diseases (additional tumor types on which the peptide was found): SCLC, RCC, CRC, CLL, NHL, AML, BRCA, Urinary bladder cancer, Gallbladder Cancer, Bile Duct Cancer

215 (EVISKLYAV; listed as Homo sapiens) [compound 215]
Peptide Presentation (presentation score): + | Additional Entities (additional tumor types on which the peptide was found): RCC, GC, HCC | relevant organs/diseases (additional tumor types on which the peptide was found): BRCA, Urinary bladder cancer

216 (TLLHFLAEL; listed as Homo sapiens) [compound 216]
Peptide Presentation (presentation score): ++ | relevant organs/diseases (additional tumor types on which the peptide was found): CLL, NHL

217 (NMMSGISSV; listed as Homo sapiens) [compound 217]
Peptide Presentation (presentation score): ++ | Additional Entities (additional tumor types on which the peptide was found): BRCA, HNSCC | relevant organs/diseases (additional tumor types on which the peptide was found): Brain Cancer, CRC, Urinary bladder cancer, Uterine Cancer, Gallbladder Cancer, Bile Duct Cancer

218 (STLHLVLRL; listed as Homo sapiens) [compound 218]
Peptide Presentation (presentation score): + | relevant organs/diseases (additional tumor types on which the peptide was found): RCC, GC, HCC, PC

219 (FLDSEVSEL; listed as Homo sapiens) [compound 219]
Additional Entities (additional tumor types on which the peptide was found): SCLC, GC | relevant organs/diseases (additional tumor types on which the peptide was found): NHL, AML, Urinary bladder cancer, Uterine Cancer

220 (SAAEPTPAV; listed as Homo sapiens) [compound 220]
Additional Entities (additional tumor types on which the peptide was found): HCC | relevant organs/diseases (additional tumor types on which the peptide was found): Gallbladder Cancer, Bile Duct Cancer

221 (SLLPTEQPRL; listed as Homo sapiens) [compound 221]
Peptide Presentation (presentation score): ++ | Additional Entities (additional tumor types on which the peptide was found): HNSCC | relevant organs/diseases (additional tumor types on which the peptide was found): NSCLC, SCLC, Brain Cancer, CRC, HCC, PrC, CLL, NHL, Esophageal Cancer, Urinary bladder cancer, Uterine Cancer, Gallbladder Cancer, Bile Duct Cancer

222 (LLSEIEEHL; listed as Homo sapiens) [compound 222]
relevant organs/diseases (additional tumor types on which the peptide was found): CLL

223 (FLETNVPLL; listed as Homo sapiens) [compound 223]
Peptide Presentation (presentation score): + | relevant organs/diseases (additional tumor types on which the peptide was found): Uterine Cancer, Gallbladder Cancer, Bile Duct Cancer

224 (ILDEPTNHL; listed as Homo sapiens) [compound 224]
Peptide Presentation (presentation score): + | Additional Entities (additional tumor types on which the peptide was found): Uterine Cancer | relevant organs/diseases (additional tumor types on which the peptide was found): CLL

225 (VLFGAVITGA; listed as Homo sapiens) [compound 225]
Peptide Presentation (presentation score): + | Additional Entities (additional tumor types on which the peptide was found): HNSCC | relevant organs/diseases (additional tumor types on which the peptide was found): SCLC, Brain Cancer, HCC, PC, CLL, NHL, AML, BRCA, Esophageal Cancer, Urinary bladder cancer, Uterine Cancer

226 (VLNEYFHNV; listed as Homo sapiens) [compound 226]
Peptide Presentation (presentation score): + | Additional Entities (additional tumor types on which the peptide was found): NHL, HNSCC | relevant organs/diseases (additional tumor types on which the peptide was found): SCLC, HCC, BRCA, Esophageal Cancer, Urinary bladder cancer, Uterine Cancer

227 (FLLEQEKTQAL; listed as Homo sapiens) [compound 227]
Peptide Presentation (presentation score): + | Additional Entities (additional tumor types on which the peptide was found): HNSCC | relevant organs/diseases (additional tumor types on which the peptide was found): PrC, CLL, NHL, BRCA, Esophageal Cancer, OC

228 (FLNLFNHTL; listed as Homo sapiens) [compound 228]
Peptide Presentation (presentation score): + | relevant organs/diseases (additional tumor types on which the peptide was found): CLL

229 (LLEPFVHQV; listed as Homo sapiens) [compound 229]
Peptide Presentation (presentation score): ++ | relevant organs/diseases (additional tumor types on which the peptide was found): CLL, NHL, Urinary bladder cancer, Uterine Cancer
